Publication PMC7581431
Results are given in words; binding and its absence hold for the method and conditions named. Some binding calls cover weakened binding; strength is not graded here.

T1: RFP-NKD1-EF (human) (UniProt Q969G9)
T1 sequence: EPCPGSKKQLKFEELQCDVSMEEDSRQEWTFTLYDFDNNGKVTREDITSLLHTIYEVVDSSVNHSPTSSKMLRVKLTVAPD


Experiments:
RFP-NKD1-EF (human) [1] = target: T1, RFP-NKD1-EF (human); experiment: SEC-MALS; purified proteins and preformed complexes, Superdex-200 10/300, 2 mg/ml, 15 mM TrisHCl, 150 mM NaCl, pH 7.4; both purified
RFP-NKD1-EF (human) [2] = target: T1, RFP-NKD1-EF (human); experiment: condition: 696 μM Lip-DVL2-PDZ-V334E injected into 17.2 μM RFP-NKD-EF; ITC; MicroCal iTC200, 15 mM Tris-HCl, 150 mM NaCl, pH 7.4; Lip-DVL2-PDZ or Lip-DVL2-PDZ-V334E (696 μM) injected into 17.2 μM RFP-NKD-EF; both purified

Binder	binding (RFP-NKD1-EF (human) [1])	binding (RFP-NKD1-EF (human) [2])
Lip-DVL2-PDZ (domain or fragment, UniProt O14641 285-373) QSNERGDGGIYIGSIMKGGAVAADGRIEPGDMLLQVNDMNFENMSNDDAVRVLRDIVHKPGPIVLTVAKCWDPSPQAYFTLPRNEPIQP	binds	
Lip-DVL2-PDZ-V334E (domain or fragment, UniProt O14641 285-373) QSNERGDGGIYIGSIMKGGAVAADGRIEPGDMLLQVNDMNFENMSNDDAERVLRDIVHKPGPIVLTVAKCWDPSPQAYFTLPRNEPIQP		no binding
